Data as given in patent US5736517A (Biomeasure, Inc., priority 1993, dated 1998).

Key:
[1] = general procedure: Boc solid-phase peptide synthesis; Benzhydrylamine-polystyrene resin; diisopropylcarbodiimide (hydroxybenzotriazole for some residues); details: whole synthesis, scale 0.5 mmole
[2] = general procedure: Boc solid-phase peptide synthesis; Methylbenzhydrylamine-polystyrene resin; diisopropylcarbodiimide (hydroxybenzotriazole for some residues); details: whole synthesis, scale 0.73 mmol

Question: For “pGlu-Gln-Trp-Ala-Val-Gly-His-Leuψ[CH2NH]Leu-NH2”, which isolated mass [1] is on record?
Answer: 60 mg

Question: With pGlu-Gln-Trp-Ala-Val-Gly-His-Sta-NH2 as the substance, how does the isolated mass [2] read?
Answer: 77 mg
